Data reported in PMC7819943, “Rice protein-binding microarrays: a tool to detect cis-acting elements near promoter regions in rice”.
The other results are listed elsewhere or left out.

Chains of the proteins cited; added tags and fusions are not shown.
UniProt Q0JBA9, entry or part of it: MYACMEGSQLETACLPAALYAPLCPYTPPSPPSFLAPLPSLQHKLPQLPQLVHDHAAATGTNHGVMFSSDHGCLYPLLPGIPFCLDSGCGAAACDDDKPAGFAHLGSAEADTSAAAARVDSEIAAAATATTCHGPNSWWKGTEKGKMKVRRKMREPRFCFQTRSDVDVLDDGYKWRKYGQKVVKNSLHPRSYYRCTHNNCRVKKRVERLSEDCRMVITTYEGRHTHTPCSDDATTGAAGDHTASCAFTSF

Molecular target: OsWRKY34 (Oryza sativa, UniProt Q0JBA9 1-250)
Test: protein-binding microarray (RPBM); PBS, 2% BSA, 51.3 ng/ul salmon testes DNA, 50 uM zinc acetate, 200 nM TF, 25 C, 1 h; high values mean tight binding
Details: protein: recombinant; tags: N-terminal polyhistidine and DsRed monomer fusion (pET32a); label: CyDye5-dUTP incorporated in the synthesized complementary strand; 3' TTTTT single-stranded linker to array surface; dsDNA, one strand shown
Summary of the method: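 Transcription factors, each fused N-terminally to a polyhistidine tag and DsRed, were expressed in E. coli BL21-CodonPlus and purified on Ni–NTA. A custom Agilent array was made double-stranded by primer extension with Cy5-dUTP and blocked with 2% BSA. It was incubated with 200 nM protein in PBS, 2% BSA, salmon testes DNA and 50 µM zinc acetate at 25 °C for 1 h, then washed. The binding signal is per-feature fluorescence intensity (arbitrary units) read on an Axon 4000B scanner.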

Point of comparison: “CACTCCTTGTTTGGTAATTGCATATGATGCCTCTGATTGTCGGAGTCACCTAGTGCAG”, binding signal 8420 fluorescence intensity (a.u.). Against it:
- CCAATTTCTACCTTTTGCATGATGCATCTATCGTGCATGCCGGAGTCACCTAGTGCAG — higher, 9320 fluorescence intensity (a.u.)
- ATAGCTTTCGTGCTAGCTTCATCGATGTTACCCACCAAATCGGAGTCACCTAGTGCAG — higher, 9210 fluorescence intensity (a.u.)
- TCCGTCTCTTTCTTATTAATTAATTTTCTATATCATATTTCGGAGTCACCTAGTGCAG — higher, 9530 fluorescence intensity (a.u.)
- ATCGCTCGCCACGTGTCCACGCTCCACCCCAACCCCTCATCGGAGTCACCTAGTGCAG — higher, 8620 fluorescence intensity (a.u.)
- TCTCTCTCTCTCTTGTCGCGATGGCGGCGGCGGCGATCGCCGGAGTCACCTAGTGCAG — higher, 8810 fluorescence intensity (a.u.)
- GTATATATATGTCGTGGTTTGTTATGTCTGGGGTTGATCACGGAGTCACCTAGTGCAG — higher, 10100 fluorescence intensity (a.u.)
- GTGTGTGTGTGTGGACCAGGCGGCGCCCAATCGGCCATGCCGGAGTCACCTAGTGCAG — lower, 8290 fluorescence intensity (a.u.)
- TGGATGTCGCCGTCGGCGGGGTGGTGGGATTTGGAACTGGCGGAGTCACCTAGTGCAG — higher, 12500 fluorescence intensity (a.u.)
- ACACAGCACATGTCACCGCCTCGTCAGACCGGGCCCACACCGGAGTCACCTAGTGCAG — higher, 9950 fluorescence intensity (a.u.)
- GGTTTGTGAATTTTTTAATATCTCTCTGTGTGTGTTTGTGCGGAGTCACCTAGTGCAG — higher, 8480 fluorescence intensity (a.u.)
- TACCCCTCATGACTTTTTTGTGTCTTCTTCTATTGTTCATCGGAGTCACCTAGTGCAG — lower, 8290 fluorescence intensity (a.u.)
- TTTTTGGTGTGGTGTGGATCTCTCATAGGTAAACTTGTCCCGGAGTCACCTAGTGCAG — higher, 8480 fluorescence intensity (a.u.)
- GGTCCAAGTCAGCCTTCTTGCATTGGTCCAAGTCAGCCTTCGGAGTCACCTAGTGCAG — higher, 9120 fluorescence intensity (a.u.)
- TCCCATGTCTCCGCCGCCGCGTCACCGCCCAGCACGAACCCGGAGTCACCTAGTGCAG — higher, 11900 fluorescence intensity (a.u.)
- GTTTATTTGGGTTCTCTTATGTGTTGGTGTGTCGATGACCCGGAGTCACCTAGTGCAG — higher, 8940 fluorescence intensity (a.u.)
- GTGCACTGGATTTCTAAGTTGAGGGGCGCGTTTTATCCGACGGAGTCACCTAGTGCAG — higher, 9050 fluorescence intensity (a.u.)
- TTCCGCGGTAGGGGAGTGAAAGTTATGTGATTATGTTGTTCGGAGTCACCTAGTGCAG — higher, 8960 fluorescence intensity (a.u.)
- ACCGACGCCTGCCTACCGCGATGCCACCCTTGCCTGCCGCCGGAGTCACCTAGTGCAG — higher, 10200 fluorescence intensity (a.u.)
- ACACTGAGCACCCTCGCAGGATTCCACGGTCAAATCTTGACGGAGTCACCTAGTGCAG — lower, 8260 fluorescence intensity (a.u.)
- TATCTGAGCACTTAGAGGTGTAATATCCGCTTCATGTTTCCGGAGTCACCTAGTGCAG — higher, 8980 fluorescence intensity (a.u.)
- ATTGTTCTCTAGCTAGATTTCCATGCACATTTCGATACATCGGAGTCACCTAGTGCAG — lower, 8360 fluorescence intensity (a.u.)
- ATAGGTGCCGGTTCTATTTTGGTATAGGGGTCGGTTGTTTCGGAGTCACCTAGTGCAG — higher, 11700 fluorescence intensity (a.u.)
- CCTTGCCAGCTAGCTACTTCGTGTTTGGTACTACTGAAAACGGAGTCACCTAGTGCAG — higher, 8700 fluorescence intensity (a.u.)
- AAATTGCTGAGACGCGATTACACCGACTCTGGTCGTCTCACGGAGTCACCTAGTGCAG — higher, 8700 fluorescence intensity (a.u.)
- GTTAGGGTTTTCTTTTGATTGTCAGGGTTTTCTTTTGATTCGGAGTCACCTAGTGCAG — higher, 13200 fluorescence intensity (a.u.)
- ATTTTGTGTTCTCTATATTACCATATCTCTAGTCAATAATCGGAGTCACCTAGTGCAG — higher, 10900 fluorescence intensity (a.u.)
- CCGTATGCTCCGTATGTTCGAGGATCCCTTTCCGACCGCGCGGAGTCACCTAGTGCAG — higher, 8920 fluorescence intensity (a.u.)
- GTTTAGTTTAGTTGATCTTTTGTACATATGCATACTGTGTCGGAGTCACCTAGTGCAG — higher, 10600 fluorescence intensity (a.u.)
- GTGCGCGCCTTATATTGTGGGATAGTGGGAGTATATTTTCCGGAGTCACCTAGTGCAG — higher, 13900 fluorescence intensity (a.u.)
- GTGGTCGCATGGTACAATCTTTGAGTGATTTTTTTTCAACCGGAGTCACCTAGTGCAG — higher, 9490 fluorescence intensity (a.u.)
- GACAAACATCAACATGCACTCTACTTTATTTGCCAATAGGCGGAGTCACCTAGTGCAG — lower, 8360 fluorescence intensity (a.u.)
- GGCACAGAGGACCAGGAGGAGGTGCGGGAAGGGGCTGGCACGGAGTCACCTAGTGCAG — lower, 8380 fluorescence intensity (a.u.)
- TATTTTAATTTTCGGAGCTTTCATTTCAAGCGCCTTTTTTCGGAGTCACCTAGTGCAG — lower, 8140 fluorescence intensity (a.u.)
- TACCAGCAATAGCAACGTCGTCTCCGGCCGCTGCATGCCTCGGAGTCACCTAGTGCAG — higher, 8640 fluorescence intensity (a.u.)
- AGTAGTCCTTCAAGCTCCAATCATATACCCCTGATACTAACGGAGTCACCTAGTGCAG — lower, 8300 fluorescence intensity (a.u.)
- TATCATATAACTTTTTTTTTTGCGGGGCATATCATATAACCGGAGTCACCTAGTGCAG — higher, 8440 fluorescence intensity (a.u.)
- TCTCCGCCGTGTTCCTCCCGCCCGCCGCCGCCTTCCCGCCCGGAGTCACCTAGTGCAG — higher, 10400 fluorescence intensity (a.u.)
- CCTTCGATTGACCTCCTCATCCTCTTCCCCTGCTTTCTTTCGGAGTCACCTAGTGCAG — higher, 9720 fluorescence intensity (a.u.)
- TTTTGAGTTTTTGTGTGAACTGTTTGACCACTCGTCTTATCGGAGTCACCTAGTGCAG — lower, 8250 fluorescence intensity (a.u.)
- CGCGGGGAGGGAGGGAGGGAAGGAGAGGAGGAAGAGGATGCGGAGTCACCTAGTGCAG — higher, 9410 fluorescence intensity (a.u.)
- ATGTGCTATTTTCCTTTGTTTTTCCTTTTATGTTATTTTTCGGAGTCACCTAGTGCAG — higher, 14900 fluorescence intensity (a.u.)
